Results taken from patent US20110256127A1.
No constants are given. Whether binding was seen depends on the method and setting. Some results given as binding are weak or reduced against the parent protein; the word gives no strength.

By UniProt entry, the sequences of proteins in these tests, tags left out. Where a name states a change or a piece, a line headed by the entry shows the natural chain unless it says otherwise.
UniProt O75581: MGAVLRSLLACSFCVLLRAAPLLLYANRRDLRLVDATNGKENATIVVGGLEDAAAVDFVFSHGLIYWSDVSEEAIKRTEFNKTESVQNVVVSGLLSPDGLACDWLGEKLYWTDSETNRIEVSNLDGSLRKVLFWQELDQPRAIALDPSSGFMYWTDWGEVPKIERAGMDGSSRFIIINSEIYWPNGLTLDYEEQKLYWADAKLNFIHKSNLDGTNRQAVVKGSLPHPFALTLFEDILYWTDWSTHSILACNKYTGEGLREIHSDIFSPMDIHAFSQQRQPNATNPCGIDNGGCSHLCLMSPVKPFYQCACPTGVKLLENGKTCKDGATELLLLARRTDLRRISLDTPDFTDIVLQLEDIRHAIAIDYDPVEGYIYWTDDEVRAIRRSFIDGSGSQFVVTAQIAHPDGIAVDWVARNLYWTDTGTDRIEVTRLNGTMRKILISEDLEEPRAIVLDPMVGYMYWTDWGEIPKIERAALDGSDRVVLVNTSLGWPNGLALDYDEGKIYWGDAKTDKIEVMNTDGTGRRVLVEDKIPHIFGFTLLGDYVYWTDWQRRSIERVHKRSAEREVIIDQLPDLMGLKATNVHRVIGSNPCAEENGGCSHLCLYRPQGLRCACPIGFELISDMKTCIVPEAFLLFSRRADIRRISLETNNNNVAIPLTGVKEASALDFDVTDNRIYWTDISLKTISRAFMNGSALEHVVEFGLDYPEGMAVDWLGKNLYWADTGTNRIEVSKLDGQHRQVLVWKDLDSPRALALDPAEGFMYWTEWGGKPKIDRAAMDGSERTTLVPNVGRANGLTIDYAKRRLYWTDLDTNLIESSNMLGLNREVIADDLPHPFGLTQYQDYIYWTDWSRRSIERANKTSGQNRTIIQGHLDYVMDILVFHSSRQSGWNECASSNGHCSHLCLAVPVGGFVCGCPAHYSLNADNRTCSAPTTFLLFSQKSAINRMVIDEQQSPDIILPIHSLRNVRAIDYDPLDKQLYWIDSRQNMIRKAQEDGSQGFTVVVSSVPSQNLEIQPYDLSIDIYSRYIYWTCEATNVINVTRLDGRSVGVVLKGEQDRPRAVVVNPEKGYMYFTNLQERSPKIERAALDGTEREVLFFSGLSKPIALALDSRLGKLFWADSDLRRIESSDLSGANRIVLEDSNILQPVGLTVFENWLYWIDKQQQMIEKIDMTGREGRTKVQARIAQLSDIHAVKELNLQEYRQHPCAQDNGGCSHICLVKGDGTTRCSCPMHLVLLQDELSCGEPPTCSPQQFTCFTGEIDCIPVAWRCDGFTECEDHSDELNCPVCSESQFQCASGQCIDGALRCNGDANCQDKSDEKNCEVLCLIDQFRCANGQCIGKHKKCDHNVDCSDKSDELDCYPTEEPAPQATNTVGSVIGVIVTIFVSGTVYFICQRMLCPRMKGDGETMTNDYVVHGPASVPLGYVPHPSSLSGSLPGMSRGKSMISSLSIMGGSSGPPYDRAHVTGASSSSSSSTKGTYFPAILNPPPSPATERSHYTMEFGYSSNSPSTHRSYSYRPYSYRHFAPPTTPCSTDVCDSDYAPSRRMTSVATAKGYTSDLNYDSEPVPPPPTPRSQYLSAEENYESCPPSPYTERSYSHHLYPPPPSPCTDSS

Key:
[1] = biological target: LRP6.E1-E4 protein (Homo sapiens (Human)) (UniProt O75581); assay: FACS competition, soluble LRP6 E1-E4 protein as competitor
[2] = biological target: LRP6.E1-E4 protein (Homo sapiens (Human)) (UniProt O75581); assay: biolayer interferometry, immobilized biotinylated LRP6.E1-E4
[3] = biological target: LRP6.E1-E4 protein (Homo sapiens (Human)) (UniProt O75581); assay: biolayer interferometry, immobilized LRP6 E1-E4; two antibodies added one after the other, in both orders; concentrations not given
[4] = biological target: LRP6.E1-E4 protein (Homo sapiens (Human)) (UniProt O75581); assay: biolayer interferometry, sequential binding

Measured: binding

B1: YW211.31.57 antibody (antibody, human IgG1, kappa, V domains shown)
VH: EVQLVESGGGLVQPGGSLRLSCAASGFTFTSYYISWVRQAPGKGLEWVAEISPYSGSTYYADSVKGRFTISADTSKNTAYLQMNSLRAEDTAVYYCALRARPPIRLYPRGSVMDYWGQGTLVTVSS
VL: DIQMTQSPSSLSASVGDRVTITCRASQDVSTAVAWYQQKPGKAPKLLIYSASFLYSGVPSRFSGSGSGTDFTLTISSLQPEDFATYYCQQSYTLPTTFGQGTKVEIKR
binds: [1] | [2] | [3] | [4]
